No constants are given. Whether binding was seen depends on the method and setting. Some results given as binding are weak or reduced against the parent protein; the word gives no strength.
Tests used:
[1] = target: T1, biotinylated human IL-10Rα (human) (UniProt Q13651); experiment: BLI (Octet RED96), biotinylated human IL-10Rα on streptavidin biosensors, IL-10 as analyte
T1 sequence (biotinylated (site not stated), looked up): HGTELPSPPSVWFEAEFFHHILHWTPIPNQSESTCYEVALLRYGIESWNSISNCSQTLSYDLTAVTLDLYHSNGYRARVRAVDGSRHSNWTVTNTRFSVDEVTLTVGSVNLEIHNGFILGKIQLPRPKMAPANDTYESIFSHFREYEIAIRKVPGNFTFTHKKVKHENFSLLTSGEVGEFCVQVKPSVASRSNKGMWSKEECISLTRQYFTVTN

[2] = target: T1, biotinylated human IL-10Rα (human); experiment: bio-layer interferometry (Octet RED96): biotinylated human IL-10Rα on streptavidin biosensors, IL-10 as analyte, 240 s association, 600 s dissociation, global 1:1 Langmuir fit

B1: IL-10 wild type (mature wild type human IL-10) (ligand)
chain: SPGQGTQSENSCTHFPGNLPNMLRDLRDAFSRVKTFFQMKDQLDNLLLKESLLEDFKGYLGCQALSEMIQFYLEEVMPQAENQDPDIKAHVNSLGENLKTLRLRLRRCHRFLPCENKSKAVEQVKNAFNKLQEKGIYKAMSEFDIFINYIEAYMTMKIRN
binding [1]: binds
binding [2]: binds
